This series relates to prefrontal cortex gene expression. The series is described as follows: Transcriptomics (bulk mRNA sequencing of the prefrontal cortex). The series is classed as in vivo, mice. The conditions noted are these: 1 mg/kg IP; for Number of genes in the downregulated group / Number of genes in the upregulated group: p < 0.01 and absolute log2 FC > 0.2; for Number of genes in the downregulated group / Number of genes in the upregulated group / Number of differentially expressed genes (DEGs) compared to VEH: PFC 24 h; for Number of differentially expressed genes (DEGs) compared to VEH: uncorrected p < 0.01; for log2FoldChange vs vehicle: mPFC 24 h.

SMILES strings stand for the structures.

The source of these data is publication PMC12037037 (Proceedings of the National Academy of Sciences of the …, 2025).

For `CCN(CC)C(=O)[C@@H]1C=C2c3cccc4[nH]cc(c34)C[C@H]2N(C)C1` [LSD, lysergic acid diethylamide], the “Number of genes in the downregulated group” value is given as 45, the “Number of genes in the upregulated group” value is reported as 48 and the “Number of differentially expressed genes (DEGs) compared to VEH” value worked out at 198.

As for `CCN(CC)C(=O)[C@@H]1C=C2c3cccc4ccn(c34)C[C@H]2N(C)C1` [(+)-JRT], the “Number of genes in the downregulated group” value came out at 34, the “Number of genes in the upregulated group” value was determined as 18 and the “Number of differentially expressed genes (DEGs) compared to VEH” value amounted to 114. Besides, where the note is “gene Cav2 (ENSMUSG00000000058)”, the log2FoldChange vs vehicle is -0.008109. The log2FoldChange vs vehicle (gene Cdc45 (ENSMUSG00000000028)) amounted to 0.1746. For the same compound, the log2FoldChange vs vehicle (gene Gnai3 (ENSMUSG00000000001)) is listed as -0.04695. Also, under “gene Narf (ENSMUSG00000000056)”, the log2FoldChange vs vehicle stood at 0.04152. Also, the log2FoldChange vs vehicle (gene Scml2 (ENSMUSG00000000037)) is listed as 0.2378.
